The other results are listed elsewhere or left out. The calls rarely recur for the same compound in another form.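 In K562 cells expressing nanoluciferase-fused kinases, luminescence was recorded at 4 h intervals between 2 and 18 h, normalized as percent of control with DMSO at 100% and a positive control at 0%. A significant (2 sigma) signal drop marks a time point as decreased. The authors' rule for a hit is not shown and takes in more than the number of time points.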
Tests used:
Test in all cases: kinase-Nluc reporter destabilization hit call (1 = scored as downregulated) (binary); higher = compound decreases kinase abundance
Settings in all cases: K562; 2-18 h
EPHA2 = EPHA2 (UniProt P29317)
ERBB3 = ERBB3 (UniProt P21860)
[1] = biological target: ERBB4_R711C (clone: ERBB4_mut) (UniProt Q15303)
ERN1 = ERN1 (UniProt O75460)
FGFR1 = FGFR1 (UniProt P11362)
FGFR2 = FGFR2 (UniProt P21802)
FGFR3 = FGFR3 (UniProt P22607)
FGR = FGR (UniProt P09769)
FLT3 = FLT3 (UniProt P36888)
FYN = FYN (UniProt P06241)
GSK3A = GSK3A (UniProt P49840)
HER2 = HER2 (UniProt P04626)
INSRR = INSRR (UniProt P14616)
EGFR = EGFR (UniProt P00533)
EGFR_G719S = EGFR_G719S (UniProt P00533)
EGFR_G719S_T790M = EGFR_G719S_T790M (UniProt P00533)
EGFR_L718V = EGFR_L718V (UniProt P00533)
EGFR_L858R = EGFR_L858R (UniProt P00533)
EGFR_L861Q = EGFR_L861Q (UniProt P00533)
EGFR_T790M = EGFR_T790M (UniProt P00533)

By UniProt entry, the sequences of proteins in these tests, tags left out. Where a name states a change or a piece, a line headed by the entry shows the natural chain unless it says otherwise.
UniProt P29317, whole entry: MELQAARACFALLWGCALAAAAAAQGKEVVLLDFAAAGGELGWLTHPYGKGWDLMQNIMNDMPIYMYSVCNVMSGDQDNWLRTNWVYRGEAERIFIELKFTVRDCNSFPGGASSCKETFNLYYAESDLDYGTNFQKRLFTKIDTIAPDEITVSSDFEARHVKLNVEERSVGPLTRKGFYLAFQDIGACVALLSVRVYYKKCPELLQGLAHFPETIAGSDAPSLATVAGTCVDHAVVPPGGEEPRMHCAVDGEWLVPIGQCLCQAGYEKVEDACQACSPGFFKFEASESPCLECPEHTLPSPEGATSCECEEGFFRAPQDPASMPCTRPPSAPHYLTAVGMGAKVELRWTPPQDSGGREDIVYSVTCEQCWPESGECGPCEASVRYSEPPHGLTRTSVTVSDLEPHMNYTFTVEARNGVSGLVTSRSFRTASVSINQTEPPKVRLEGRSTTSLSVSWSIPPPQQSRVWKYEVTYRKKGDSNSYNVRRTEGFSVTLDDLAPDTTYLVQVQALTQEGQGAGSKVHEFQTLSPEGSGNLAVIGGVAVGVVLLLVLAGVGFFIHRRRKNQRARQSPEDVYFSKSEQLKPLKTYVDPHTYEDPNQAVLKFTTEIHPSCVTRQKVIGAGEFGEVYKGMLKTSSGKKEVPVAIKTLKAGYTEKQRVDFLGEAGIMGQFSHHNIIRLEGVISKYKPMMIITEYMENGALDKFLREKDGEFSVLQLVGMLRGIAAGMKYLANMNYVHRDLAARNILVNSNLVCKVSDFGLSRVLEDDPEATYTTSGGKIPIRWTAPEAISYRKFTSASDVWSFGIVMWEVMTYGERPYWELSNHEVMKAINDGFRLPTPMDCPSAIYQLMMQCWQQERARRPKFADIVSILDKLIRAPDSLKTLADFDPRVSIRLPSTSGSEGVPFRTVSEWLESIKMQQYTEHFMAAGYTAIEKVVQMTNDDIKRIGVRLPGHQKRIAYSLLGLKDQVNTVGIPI
UniProt O75460: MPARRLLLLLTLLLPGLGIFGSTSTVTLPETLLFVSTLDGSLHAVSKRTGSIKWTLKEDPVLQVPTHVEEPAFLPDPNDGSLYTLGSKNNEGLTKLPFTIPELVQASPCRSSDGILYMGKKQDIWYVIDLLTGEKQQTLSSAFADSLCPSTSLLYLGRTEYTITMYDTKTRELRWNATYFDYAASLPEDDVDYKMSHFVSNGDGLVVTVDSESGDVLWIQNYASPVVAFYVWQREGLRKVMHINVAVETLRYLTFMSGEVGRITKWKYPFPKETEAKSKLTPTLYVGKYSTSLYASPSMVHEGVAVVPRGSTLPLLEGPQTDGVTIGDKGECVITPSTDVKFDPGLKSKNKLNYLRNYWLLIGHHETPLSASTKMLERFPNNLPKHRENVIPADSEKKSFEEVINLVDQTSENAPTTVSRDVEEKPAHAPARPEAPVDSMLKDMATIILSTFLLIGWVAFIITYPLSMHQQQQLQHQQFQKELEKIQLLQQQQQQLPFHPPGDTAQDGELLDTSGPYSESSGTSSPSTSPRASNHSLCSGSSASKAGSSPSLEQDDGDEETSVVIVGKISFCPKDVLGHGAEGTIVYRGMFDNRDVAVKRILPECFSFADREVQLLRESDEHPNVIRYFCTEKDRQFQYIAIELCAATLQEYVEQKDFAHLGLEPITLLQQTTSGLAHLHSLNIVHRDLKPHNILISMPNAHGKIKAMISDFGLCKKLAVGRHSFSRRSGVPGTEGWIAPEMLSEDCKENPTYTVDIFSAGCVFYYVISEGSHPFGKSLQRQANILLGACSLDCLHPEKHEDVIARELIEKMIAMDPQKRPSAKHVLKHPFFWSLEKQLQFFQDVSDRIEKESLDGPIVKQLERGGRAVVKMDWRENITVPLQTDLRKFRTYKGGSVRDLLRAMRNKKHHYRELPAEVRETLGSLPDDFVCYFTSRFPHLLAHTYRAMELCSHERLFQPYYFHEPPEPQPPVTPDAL
UniProt P21802, whole entry, looked up: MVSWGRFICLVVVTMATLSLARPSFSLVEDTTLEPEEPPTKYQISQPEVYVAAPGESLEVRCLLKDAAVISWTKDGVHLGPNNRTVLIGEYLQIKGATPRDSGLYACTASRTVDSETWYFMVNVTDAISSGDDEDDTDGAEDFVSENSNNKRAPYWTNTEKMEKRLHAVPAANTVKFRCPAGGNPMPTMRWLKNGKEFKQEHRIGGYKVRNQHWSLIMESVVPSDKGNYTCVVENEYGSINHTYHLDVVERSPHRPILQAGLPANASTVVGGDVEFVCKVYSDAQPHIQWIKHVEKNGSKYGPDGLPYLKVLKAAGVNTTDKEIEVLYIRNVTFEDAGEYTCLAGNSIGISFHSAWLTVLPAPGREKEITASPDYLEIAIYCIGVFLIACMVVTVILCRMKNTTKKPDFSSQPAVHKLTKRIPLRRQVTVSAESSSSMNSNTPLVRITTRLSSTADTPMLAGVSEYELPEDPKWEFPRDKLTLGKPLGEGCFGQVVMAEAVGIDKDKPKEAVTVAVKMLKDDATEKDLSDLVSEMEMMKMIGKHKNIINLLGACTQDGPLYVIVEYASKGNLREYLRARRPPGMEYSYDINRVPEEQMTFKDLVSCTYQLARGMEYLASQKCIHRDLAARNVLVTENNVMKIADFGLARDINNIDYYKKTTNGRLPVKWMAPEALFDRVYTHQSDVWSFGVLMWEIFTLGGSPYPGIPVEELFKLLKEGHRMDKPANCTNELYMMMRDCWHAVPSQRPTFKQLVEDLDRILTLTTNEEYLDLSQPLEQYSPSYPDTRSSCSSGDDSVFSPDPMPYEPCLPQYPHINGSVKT
UniProt P22607, whole entry, looked up: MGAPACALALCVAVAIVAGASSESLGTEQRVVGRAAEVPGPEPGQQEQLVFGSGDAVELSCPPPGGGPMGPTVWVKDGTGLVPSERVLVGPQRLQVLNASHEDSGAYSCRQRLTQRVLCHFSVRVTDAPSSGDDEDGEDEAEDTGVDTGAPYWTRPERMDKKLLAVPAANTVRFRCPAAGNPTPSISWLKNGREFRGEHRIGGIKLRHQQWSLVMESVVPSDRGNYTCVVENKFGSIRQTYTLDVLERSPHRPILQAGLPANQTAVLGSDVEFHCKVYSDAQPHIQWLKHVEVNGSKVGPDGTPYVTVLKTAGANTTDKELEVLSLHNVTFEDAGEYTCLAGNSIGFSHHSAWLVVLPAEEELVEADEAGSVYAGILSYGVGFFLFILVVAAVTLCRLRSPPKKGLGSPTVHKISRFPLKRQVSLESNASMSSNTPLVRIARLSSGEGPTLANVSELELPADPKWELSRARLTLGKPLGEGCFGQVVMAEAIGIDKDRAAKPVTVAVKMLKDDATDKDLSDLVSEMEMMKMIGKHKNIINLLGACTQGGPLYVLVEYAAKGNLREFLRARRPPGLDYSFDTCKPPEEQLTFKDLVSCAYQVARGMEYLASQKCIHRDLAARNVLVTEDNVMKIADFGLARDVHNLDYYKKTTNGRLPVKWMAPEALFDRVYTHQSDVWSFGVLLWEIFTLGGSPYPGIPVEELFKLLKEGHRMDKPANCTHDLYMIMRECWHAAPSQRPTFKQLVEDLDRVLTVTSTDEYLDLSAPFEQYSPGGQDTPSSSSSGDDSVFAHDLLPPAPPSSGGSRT
UniProt P36888, whole entry: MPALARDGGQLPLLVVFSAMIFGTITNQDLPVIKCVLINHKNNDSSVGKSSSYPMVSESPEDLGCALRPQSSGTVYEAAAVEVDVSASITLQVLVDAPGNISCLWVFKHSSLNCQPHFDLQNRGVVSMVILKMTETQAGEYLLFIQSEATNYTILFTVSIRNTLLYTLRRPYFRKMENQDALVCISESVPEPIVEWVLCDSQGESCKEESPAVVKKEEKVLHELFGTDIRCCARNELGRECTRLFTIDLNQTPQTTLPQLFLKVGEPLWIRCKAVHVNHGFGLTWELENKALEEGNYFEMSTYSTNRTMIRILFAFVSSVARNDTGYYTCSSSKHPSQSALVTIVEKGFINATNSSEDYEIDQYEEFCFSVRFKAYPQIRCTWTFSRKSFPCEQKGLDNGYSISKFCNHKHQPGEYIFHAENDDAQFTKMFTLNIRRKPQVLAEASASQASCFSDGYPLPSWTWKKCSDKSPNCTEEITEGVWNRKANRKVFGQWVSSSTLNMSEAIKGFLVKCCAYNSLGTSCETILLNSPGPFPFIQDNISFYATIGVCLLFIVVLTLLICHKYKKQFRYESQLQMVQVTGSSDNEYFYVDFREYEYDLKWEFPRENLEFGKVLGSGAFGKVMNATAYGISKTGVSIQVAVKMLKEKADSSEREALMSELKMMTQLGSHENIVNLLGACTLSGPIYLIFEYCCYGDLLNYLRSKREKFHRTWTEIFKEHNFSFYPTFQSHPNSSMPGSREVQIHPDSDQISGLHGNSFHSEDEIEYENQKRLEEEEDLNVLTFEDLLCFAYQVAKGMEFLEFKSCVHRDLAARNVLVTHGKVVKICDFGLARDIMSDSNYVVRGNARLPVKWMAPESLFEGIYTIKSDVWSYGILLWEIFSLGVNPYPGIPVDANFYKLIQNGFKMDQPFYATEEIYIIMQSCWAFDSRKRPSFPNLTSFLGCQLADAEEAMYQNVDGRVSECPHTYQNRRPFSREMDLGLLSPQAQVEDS
UniProt P49840: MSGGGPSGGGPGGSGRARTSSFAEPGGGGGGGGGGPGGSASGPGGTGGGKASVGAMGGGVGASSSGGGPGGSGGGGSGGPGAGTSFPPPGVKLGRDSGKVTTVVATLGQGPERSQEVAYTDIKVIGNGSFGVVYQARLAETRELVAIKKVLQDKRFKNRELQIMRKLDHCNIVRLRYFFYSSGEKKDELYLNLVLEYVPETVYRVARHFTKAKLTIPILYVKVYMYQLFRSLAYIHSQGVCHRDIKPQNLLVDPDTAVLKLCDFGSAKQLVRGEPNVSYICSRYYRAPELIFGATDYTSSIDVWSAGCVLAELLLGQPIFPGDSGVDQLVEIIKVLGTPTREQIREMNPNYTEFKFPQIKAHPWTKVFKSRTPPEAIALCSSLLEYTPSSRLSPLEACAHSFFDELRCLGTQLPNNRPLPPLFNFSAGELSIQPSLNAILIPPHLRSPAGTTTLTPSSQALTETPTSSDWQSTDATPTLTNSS
UniProt P14616: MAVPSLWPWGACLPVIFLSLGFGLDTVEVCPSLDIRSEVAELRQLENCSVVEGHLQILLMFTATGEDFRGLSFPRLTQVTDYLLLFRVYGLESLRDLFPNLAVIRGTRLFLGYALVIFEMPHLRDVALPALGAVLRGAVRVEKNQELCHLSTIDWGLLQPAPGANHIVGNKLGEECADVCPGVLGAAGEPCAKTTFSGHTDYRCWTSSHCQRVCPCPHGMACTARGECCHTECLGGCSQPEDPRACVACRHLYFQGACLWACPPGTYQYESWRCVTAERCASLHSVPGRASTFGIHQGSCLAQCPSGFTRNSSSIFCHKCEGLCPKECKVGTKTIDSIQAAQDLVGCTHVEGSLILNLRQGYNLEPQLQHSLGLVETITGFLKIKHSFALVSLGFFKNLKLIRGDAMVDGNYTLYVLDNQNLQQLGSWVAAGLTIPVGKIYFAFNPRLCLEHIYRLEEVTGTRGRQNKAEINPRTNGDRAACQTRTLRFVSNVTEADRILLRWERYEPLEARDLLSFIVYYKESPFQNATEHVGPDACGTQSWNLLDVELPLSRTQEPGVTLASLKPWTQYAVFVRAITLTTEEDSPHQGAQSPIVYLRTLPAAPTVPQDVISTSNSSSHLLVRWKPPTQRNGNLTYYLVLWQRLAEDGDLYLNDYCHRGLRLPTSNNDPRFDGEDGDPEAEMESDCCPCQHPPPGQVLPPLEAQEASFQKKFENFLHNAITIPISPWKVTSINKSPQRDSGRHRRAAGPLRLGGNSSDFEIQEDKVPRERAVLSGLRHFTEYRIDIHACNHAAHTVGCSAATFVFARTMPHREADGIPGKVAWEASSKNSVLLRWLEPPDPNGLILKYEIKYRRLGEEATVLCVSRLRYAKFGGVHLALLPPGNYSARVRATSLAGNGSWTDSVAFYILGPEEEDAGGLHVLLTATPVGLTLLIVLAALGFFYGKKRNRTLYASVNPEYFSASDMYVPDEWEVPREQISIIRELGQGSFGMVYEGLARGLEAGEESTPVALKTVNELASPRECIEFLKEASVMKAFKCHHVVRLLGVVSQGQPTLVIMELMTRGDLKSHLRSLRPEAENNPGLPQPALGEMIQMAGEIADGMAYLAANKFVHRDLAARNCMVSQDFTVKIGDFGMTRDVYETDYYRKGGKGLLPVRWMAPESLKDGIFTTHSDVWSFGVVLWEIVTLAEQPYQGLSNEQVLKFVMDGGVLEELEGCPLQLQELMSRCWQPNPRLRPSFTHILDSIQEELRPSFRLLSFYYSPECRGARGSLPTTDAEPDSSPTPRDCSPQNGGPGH

Measured: kinase-Nluc reporter destabilization hit call

COc1cc2c(cc1F)C(c1ccccc1Cl)=Nc1c(n[nH]c1C)N2 (0.5 µM)
inactive: EPHA2 = 0 | ERBB3 = 0 | [1] 0 | ERN1 = 0 | FGFR1 = 0 | FGFR2 = 0 | FGFR3 = 0 | FGR 0 | FLT3 = 0 | FYN 0 | GSK3A 0 | HER2 = 0 | INSRR 0

CCCCCCCCCCCCCCCCOC[C@H](COP(=O)([O-])OCC[N+](C)(C)C)OC(C)=O (10 µM)
inactive: EGFR 0 | EGFR_G719S 0 | EGFR_G719S_T790M 0 | EGFR_L718V 0 | EGFR_L858R 0 | EGFR_L861Q 0 | EGFR_T790M 0 | EPHA2 = 0 | ERBB3 = 0 | [1] 0 | ERN1 = 0 | FGFR1 = 0 | FGFR2 = 0 | FGFR3 = 0 | FGR 0 | FLT3 = 0 | FYN 0 | GSK3A 0 | HER2 = 0 | INSRR 0

Cc1ccccc1-n1c(Cn2cnc3c(N)ncnc32)nc2cccc(C)c2c1=O (10 µM)
inactive: EGFR 0 | EGFR_G719S 0 | EGFR_G719S_T790M 0 | EGFR_L718V 0 | EGFR_L858R 0 | EGFR_L861Q 0 | EGFR_T790M 0 | EPHA2 = 0 | ERBB3 = 0 | [1] 0 | ERN1 = 0 | FGFR1 = 0 | FGFR2 = 0 | FGFR3 = 0 | FGR 0 | FLT3 = 0 | FYN 0 | GSK3A 0 | HER2 = 0 | INSRR 0

COc1ccc2c(c1)/C(=C/c1cnc[nH]1)C(=O)N2 (2.5 µM)
inactive: EGFR 0 | EGFR_G719S 0 | EGFR_G719S_T790M 0 | EGFR_L718V 0 | EGFR_L858R 0 | EGFR_L861Q 0 | EGFR_T790M 0 | EPHA2 = 0 | ERBB3 = 0 | [1] 0 | FGFR1 = 0 | FGFR2 = 0 | FGFR3 = 0 | FGR 0 | FLT3 = 0 | FYN 0 | GSK3A 0 | HER2 = 0 | INSRR 0

CC(=O)c1c(O)c(C)c(O)c(Cc2c(O)c3c(c(C(=O)/C=C/c4ccccc4)c2O)OC(C)(C)C=C3)c1O [Rottlerin] (2 µM)
inactive: EGFR 0 | EGFR_G719S 0 | EGFR_G719S_T790M 0 | EGFR_L718V 0 | EGFR_L858R 0 | EGFR_L861Q 0 | EGFR_T790M 0 | EPHA2 = 0 | ERBB3 = 0 | [1] 0 | ERN1 = 0 | FGFR1 = 0 | FGFR2 = 0 | FGFR3 = 0 | FGR 0 | FLT3 = 0 | FYN 0 | GSK3A 0 | HER2 = 0 | INSRR 0

CC(=O)Oc1ccc(/C=C/c2cc(OC(C)=O)cc(OC(C)=O)c2)cc1 [Triacetylresveratrol] (10 µM)
inactive: EGFR 0 | EGFR_G719S 0 | EGFR_G719S_T790M 0 | EGFR_L718V 0 | EGFR_L858R 0 | EGFR_L861Q 0 | EGFR_T790M 0 | EPHA2 = 0 | ERBB3 = 0 | [1] 0 | ERN1 = 0 | FGFR1 = 0 | FGFR2 = 0 | FGFR3 = 0 | FGR 0 | FLT3 = 0 | FYN 0 | GSK3A 0 | HER2 = 0 | INSRR 0

Three entries already listed, arranged by SMILES length, ascending:
COc1ccc2c(c1)/C(=C/c1cnc[nH]1)C(=O)N2 (2.5 µM)
inactive: EGFR 0 | EGFR_G719S 0 | EGFR_G719S_T790M 0 | EGFR_L718V 0 | EGFR_L858R 0 | EGFR_L861Q 0 | EGFR_T790M 0 | EPHA2 = 0 | ERBB3 = 0 | [1] 0 | FGFR1 = 0 | FGFR2 = 0 | FGFR3 = 0 | FGR 0 | FLT3 = 0 | FYN 0 | GSK3A 0 | HER2 = 0 | INSRR 0

Cc1ccccc1-n1c(Cn2cnc3c(N)ncnc32)nc2cccc(C)c2c1=O (10 µM)
inactive: EGFR 0 | EGFR_G719S 0 | EGFR_G719S_T790M 0 | EGFR_L718V 0 | EGFR_L858R 0 | EGFR_L861Q 0 | EGFR_T790M 0 | EPHA2 = 0 | ERBB3 = 0 | [1] 0 | ERN1 = 0 | FGFR1 = 0 | FGFR2 = 0 | FGFR3 = 0 | FGR 0 | FLT3 = 0 | FYN 0 | GSK3A 0 | HER2 = 0 | INSRR 0

CCCCCCCCCCCCCCCCOC[C@H](COP(=O)([O-])OCC[N+](C)(C)C)OC(C)=O (10 µM)
inactive: EGFR 0 | EGFR_G719S 0 | EGFR_G719S_T790M 0 | EGFR_L718V 0 | EGFR_L858R 0 | EGFR_L861Q 0 | EGFR_T790M 0 | EPHA2 = 0 | ERBB3 = 0 | [1] 0 | ERN1 = 0 | FGFR1 = 0 | FGFR2 = 0 | FGFR3 = 0 | FGR 0 | FLT3 = 0 | FYN 0 | GSK3A 0 | HER2 = 0 | INSRR 0

(continued)

N#CC(C#N)=NNc1cccc(Cl)c1 (2.5 µM)
inactive: EGFR 0 | EGFR_G719S 0 | EGFR_G719S_T790M 0 | EGFR_L718V 0 | EGFR_L858R 0 | EGFR_L861Q 0 | EGFR_T790M 0 | EPHA2 = 0 | ERBB3 = 0 | [1] 0 | ERN1 = 0 | FGFR1 = 0 | FGFR2 = 0 | FGFR3 = 0 | FGR 0 | FLT3 = 0 | FYN 0 | GSK3A 0 | HER2 = 0 | INSRR 0

CC(=O)O[C@H]1[C@H]2[C@@H](OC(=O)Cc3ccccc3)[C@@H](C)C[C@]2(OC(C)=O)C(=O)/C(C)=C/[C@@H]2[C@H](CC[C@@]13CO3)C2(C)C [Euphorbiasteroid] (10 µM)
inactive: EGFR 0 | EGFR_G719S 0 | EGFR_G719S_T790M 0 | EGFR_L718V 0 | EGFR_L858R 0 | EGFR_L861Q 0 | EGFR_T790M 0 | EPHA2 = 0 | ERBB3 = 0 | [1] 0 | ERN1 = 0 | FGFR1 = 0 | FGFR2 = 0 | FGFR3 = 0 | FGR 0 | FLT3 = 0 | FYN 0 | GSK3A 0 | HER2 = 0 | INSRR 0

Cc1ccccc1-n1c(Cn2ncc3c(N)ncnc32)nc2cccc(C)c2c1=O (10 µM)
inactive: EGFR 0 | EGFR_G719S 0 | EGFR_G719S_T790M 0 | EGFR_L718V 0 | EGFR_L858R 0 | EGFR_L861Q 0 | EGFR_T790M 0 | EPHA2 = 0 | ERBB3 = 0 | [1] 0 | ERN1 = 0 | FGFR1 = 0 | FGFR2 = 0 | FGFR3 = 0 | FGR 0 | FLT3 = 0 | FYN 0 | GSK3A 0 | HER2 = 0 | INSRR 0

C/C=C(/C)C(=O)O[C@H]1[C@@H]2[C@H](C)C(=O)O[C@@H]2C[C@@H](C)[C@@H]2C=CC(=O)[C@]21C [Brevilin A] (2.5 µM)
inactive: EGFR 0 | EGFR_G719S 0 | EGFR_G719S_T790M 0 | EGFR_L718V 0 | EGFR_L858R 0 | EGFR_L861Q 0 | EGFR_T790M 0 | EPHA2 = 0 | ERBB3 = 0 | [1] 0 | ERN1 = 0 | FGFR1 = 0 | FGFR2 = 0 | FGFR3 = 0 | FGR 0 | FLT3 = 0 | FYN 0 | GSK3A 0 | HER2 = 0 | INSRR 0

O=c1ccc2cc(O[C@@H]3O[C@H](CO)[C@@H](O)[C@H](O)[C@H]3O)c(O)cc2o1 [Esculin] (10 µM)
inactive: EGFR 0 | EGFR_G719S 0 | EGFR_G719S_T790M 0 | EGFR_L718V 0 | EGFR_L858R 0 | EGFR_L861Q 0 | EGFR_T790M 0 | EPHA2 = 0 | ERBB3 = 0 | [1] 0 | ERN1 = 0 | FGFR1 = 0 | FGFR2 = 0 | FGFR3 = 0 | FGR 0 | FLT3 = 0 | FYN 0 | GSK3A 0 | HER2 = 0 | INSRR 0

O=c1[nH]c2ccccc2n1C1CCN(CCCC(c2ccc(F)cc2)c2ccc(F)cc2)CC1 [Pimozide] (2.5 µM)
inactive: EGFR 0 | EGFR_G719S 0 | EGFR_G719S_T790M 0 | EGFR_L718V 0 | EGFR_L858R 0 | EGFR_L861Q 0 | EGFR_T790M 0 | EPHA2 = 0 | ERBB3 = 0 | [1] 0 | ERN1 = 0 | FGFR1 = 0 | FGFR2 = 0 | FGFR3 = 0 | FGR 0 | FLT3 = 0 | FYN 0 | GSK3A 0 | HER2 = 0 | INSRR 0

COc1ccc2c(c1)[nH]c1c(C)nccc12 [Harmine] (10 µM)
inactive: EGFR 0 | EGFR_G719S 0 | EGFR_G719S_T790M 0 | EGFR_L718V 0 | EGFR_L858R 0 | EGFR_L861Q 0 | EGFR_T790M 0 | EPHA2 = 0 | ERBB3 = 0 | [1] 0 | ERN1 = 0 | FGFR1 = 0 | FGFR2 = 0 | FGFR3 = 0 | FGR 0 | FLT3 = 0 | FYN 0 | GSK3A 0 | HER2 = 0 | INSRR 0

C[C@H](Nc1ncnc2[nH]cnc12)c1nc2ccc(F)cc2c(=O)n1-c1ccccc1 [Acalisib] (10 µM)
inactive: EGFR 0 | EGFR_G719S 0 | EGFR_G719S_T790M 0 | EGFR_L718V 0 | EGFR_L858R 0 | EGFR_L861Q 0 | EGFR_T790M 0 | EPHA2 = 0 | ERBB3 = 0 | [1] 0 | ERN1 = 0 | FGFR1 = 0 | FGFR2 = 0 | FGFR3 = 0 | FGR 0 | FLT3 = 0 | FYN 0 | GSK3A 0 | HER2 = 0 | INSRR 0

CCCCNc1nc(N)c2[nH]c(=O)n(Cc3ccc(C)nc3)c2n1 (10 µM)
inactive: EGFR 0 | EGFR_G719S 0 | EGFR_G719S_T790M 0 | EGFR_L718V 0 | EGFR_L858R 0 | EGFR_L861Q 0 | EGFR_T790M 0 | EPHA2 = 0 | ERBB3 = 0 | [1] 0 | ERN1 = 0 | FGFR1 = 0 | FGFR2 = 0 | FGFR3 = 0 | FGR 0 | FLT3 = 0 | FYN 0 | GSK3A 0 | HER2 = 0 | INSRR 0

— the supplement of paper PMC12823440, “Inhibitors supercharge kinase turnover through native proteolytic circuits” (Nature, 2025)
